Data published in US9289506B2, “Surface binding of nanoparticle based drug delivery to tissue” (Massachusetts Institute of Technology, priority 2013, dated 2016).
Where “and” joins values, the source holds several entries; their conditions need not be identical. Equal entries are not always repeated.

Assay: Competitive binding of FITC-Avidin and unlabeled Avidin in cartilage (binding isotherm fit)
Set-up: species or system bovine
Conditions: best fit of binding isotherm to FIG. 13 data
Experimental: To test this hypothesis, competitive binding experiments were performed in which 3 mm diameter cartilage disks were equilibrated for 3 days in 300 μl buffer containing a fixed amount of (fluorescently labeled) FITC-Avidin (1 μM) and graded amounts of unlabeled Avidin (0, 10, 76, 100, and 203 μM). The disks were split into half disks to reduce the time needed for equilibration, which was performed in 96 well plates at 37° C. The uptake ratio, RU, was measured and plotted versus the total bath concentration of Avidin (labeled+unlabeled, FIG. 13), where RU is defined as the total concentration of Avidin inside the cartilage (bound (CB) plus free (CF)) per intra-tissue water weight, normalized to the Avidin concentration in the equilibration bath (CBath):
Labeled and unlabeled Avidin were held to partition into the cartilage identically. At very low concentration of the labeled Avidin (≦1 μM), a high uptake of ˜120 was observed. When unlabeled Avidin was added to the bath, both species (labeled and unlabeled) could compete for the same (constant) number of binding sites available in the tissue (site density NT). […] To model the data of FIG. 13, a first-order, bimolecular, reversible reaction was produced to describe binding of Avidin to a single dominant binding species within cartilage. […]
[formula] […] Thus, K is determined by both steric hindrance and electrostatic (Donnan) interactions. […]

Avidin: positively charged globular glycosylated tetrameric protein, pI 10.5, 66 kDa, diameter ~7 nm (Invitrogen); SEQ ID NO 1
intra-tissue binding site density NT: 2920 µM and ~3000 µM and ~2920 µM
